Test results: PubChem BioAssay AID2685 (National Center for Advancing Translational Sciences (NCATS), 2010)
Hit rate of the full screen: of about 320,000 compounds, about 2,100 (0.66%) were called active. The shares of active, inactive and inconclusive entries below differ from those in the screen. Calls come from the whole dose curve; as a rule, active = well fitted inhibition curve with a large enough effect in the signal ratio, with a control signal flat (not every such curve was filed as active); inconclusive = small, poorly fitted or top-dose-only effect, or effect the other way, or a change in a side signal; inactive = flat fitted curve, though single readings scatter; the % refers to the signal ratio. A potency beside an inconclusive call is a rough fit, not a confirmed value.

Experiment: qHTS Assay for Lipid Storage Modulators in Drosophila S3 Cells
Conditions: BODIPY lipid droplet fluorescence, 18-24 h, cells fed with added oleic acid; lipid storage change, negative = inhibition: at 46.1 µM (top of the series) unless noted
Procedure, shortened: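 Laser-scanning cytometry quantifies lipid droplet accumulation (500–530 nm total intensity; droplet/cell object ratio) in oleic acid-fed (400 uM added) Drosophila S3 cells treated with a concentration series. 20 uM Triacsin C defined 100% inhibition.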
% is set by controls: 0 for no effect and ±100 for the full control effect; potency is the fitted concentration of half-maximal effect.

Row | Compound | lipid storage change, negative = inhibition | Potency
1 | COC(=O)c1ccc(CSc2nc3c(c(=O)n2-c2ccccc2)SCC3)o1 | inconclusive: 38.3% | 
2 | O=C(c1cccs1)N1CCN(c2nc3ccc([N+](=O)[O-])cc3s2)CC1 | inconclusive: 22.3% | 
3 | COc1ccc(C(=O)c2coc3ccc(O)c(CN4CCCC4)c23)cc1 | inconclusive: 1.13% | 
4 | C=CCNC(=O)CCCOc1cccc(C)c1 | inconclusive: 9.23% | 
5 | O=c1cc(CNc2cc(Cl)ccc2Cl)nc2sccn12 |  | inconclusive: 29.1 µM [falling, single point]
6 | CCN(CC)S(=O)(=O)c1cccc(C(=O)OCC(=O)C23CC4CC(CC(C4)C2)C3)c1 | inconclusive: -11.7% | 
7 | O=C(CCN1CCN(CCO)CC1)Nc1ccc(F)c(F)c1 |  | active: 6.51 µM
8 | Cc1cccc(-n2c(SCc3ccc([N+](=O)[O-])cc3)nnc2-c2c[nH]c3ccccc23)c1 |  | inconclusive: 0.731 µM [rising, full curve]
9 | N#Cc1c(N)n(CCc2ccc(F)cc2)c2nc3ccccc3nc12 |  | inconclusive: 0.366 µM [rising, full curve]
10 | CC(C)C12CCC(C(=O)O)C(C1)C(=O)O2 (stereo not given) |  | inconclusive: 29.1 µM [activator, partial curve, poor fit]
11 | O=C(N/N=C\c1cc([N+](=O)[O-])ccc1N1CCCC1)c1ccccn1 | inconclusive: -8.22% | 
12 | COc1ccc(CN(C)C(=O)c2[nH]c(C)c(C(C)=O)c2C)cc1F |  | inconclusive: 20.6 µM [falling, single point]
13 | O=C(O)CCNS(=O)(=O)c1ccc2ccccc2c1 | inconclusive: -6.42% | 
14 | O=C(Nc1ccc(S(=O)(=O)N2CCCC2)cc1)N1c2ccccc2Sc2ccccc21 | inconclusive: 295% | 
15 | CCC(C(=O)OCC(=O)Nc1ccc2[nH]c(=O)[nH]c2c1)c1ccccc1 (stereo not given) | inconclusive: 13.7% | 
16 | CCCNC(=O)CN(c1cccc(F)c1)S(C)(=O)=O | inconclusive: -11% | 
17 | Cc1cc(C(=O)COC(=O)CNC(=O)c2ccccc2)c(C)n1CC1CCCO1 (stereo not given) | inconclusive: -11.3% | 
18 | CCCn1c(SCC(=O)NC2CC2)nnc1-c1ccccn1 |  | inconclusive: 4.11 µM [activator, partial curve, poor fit]
19 | O=C1NC(=O)C2(CCCCCCCCCCC2)N1 | inconclusive: -87.7% | 
20 | CN1CCN(S(=O)(=O)c2ccc(Nc3ccc(F)cc3)c([N+](=O)[O-])c2)CC1 | inconclusive: 33.6% | 
21 | O=C1c2ccccc2C(=O)N1CCc1c[nH]c2ccc(O)cc12 | inconclusive: 6.11% | 
22 | O=C(c1cccc(Cl)c1)C1CCCN(C(=O)c2ccc3c(c2)OCO3)C1 (stereo not given) | inconclusive: 7.02% | 
23 | COc1ccc(C(=O)N2CCC(=O)N(C(CO)Cc3ccccc3)CC2)cc1 (stereo not given) | inactive: 1.55% | 
24 | O=C(CCCCl)NC1=NN(c2ccccc2)C(=O)C1 | inconclusive: 13.7% | 
25 | O=C(Cc1ccccc1)NNC(=O)c1ccc(Br)o1 |  | inconclusive: 14.6 µM [activator, partial curve]

Filtered by structure, those above with a COOH group
Row | Compound | lipid storage change, negative = inhibition | Potency
10 | CC(C)C12CCC(C(=O)O)C(C1)C(=O)O2 (stereo not given) |  | inconclusive: 29.1 µM [activator, partial curve, poor fit]
13 | O=C(O)CCNS(=O)(=O)c1ccc2ccccc2c1 | inconclusive: -6.42% | 

More results follow:

Row | Compound | lipid storage change, negative = inhibition | Potency
26 | O=C(CSc1ccc2nnc(-c3ccncc3)n2n1)Nc1ccc2c(c1)OCO2 |  | inconclusive: 4.11 µM [cytotoxic, single point]
27 | COc1ccc(C(=O)N2CCCC(CCC(=O)NCc3ccccc3F)C2)c(OC)n1 (stereo not given) | inconclusive: 6.54% | 
28 | CNC(=S)N/N=C/c1cc(Br)c(OCc2ccncc2)c(OC)c1 |  | inconclusive: 16.4 µM [falling, single point]
29 | Cc1cccnc1NC(=O)c1ccc(Br)o1 | inconclusive | 
30 | CCCOc1ccc(NC(=O)C2CC(=O)N3CCCN=C3S2)cc1 (stereo not given) | inconclusive: 37% | 
31 | Cc1cccc(C(=O)Nc2cc(S(=O)(=O)N3CCOCC3)ccc2N2CCCCC2)c1 | inconclusive: 9.02% | 
32 | CCOc1cc(C(=O)N/N=C/C(Br)=C/c2ccccc2)cc(OCC)c1OCC | inconclusive: -96% | 
33 | Cc1c(NC(=O)CSc2nc3ccccc3n2C)c(=O)n(-c2ccccc2)n1C | inconclusive: 8.29% | 
34 | O=C(CSc1nc2cc3c(cc2c(=O)n1CCC1=CCCCC1)OCO3)NCc1ccco1 |  | inconclusive: 0.92 µM [falling, partial curve, poor fit]
35 | COC(=O)c1ccc(NC(=O)C(=O)N2CCN(C(=S)Nc3ccccc3OC)CC2)cc1 |  | inconclusive: 5.17 µM [activator, partial curve]
36 | CC1CC1C(=O)Nc1nc(-c2cccs2)c(-c2cccs2)s1 (stereo not given) |  | inconclusive: 11.6 µM [activator, partial curve]
37 | CC(C)C(C(=O)NCc1ccco1)N(Cc1ccco1)C(=O)CNS(=O)(=O)c1ccc(F)cc1 (stereo not given) | inconclusive: 19.1% | 
38 | CCC1Oc2ccc(C)cc2N(CC(=O)N(Cc2cccnc2)Cc2ccc(C)o2)C1=O (stereo not given) | inconclusive: 0.123% | 
39 | CCN(CC)c1ccc(NC(=O)CN2CCN(c3nc(C)cc(C)n3)CC2)cc1 | inconclusive: 21.3% | 
40 | COc1ccc(-c2csc(NC(=O)CSCC(=O)Nc3cc(C)on3)n2)c(OC)c1 | inconclusive: 1.61% | 
41 | O=C(CCN1CCOCC1)c1ccccc1 |  | inconclusive: 4.11 µM [falling, full curve]
42 | CN1C2C=C(N(CCc3c[nH]c4ccccc34)C(=O)c3ccc(Cl)cc3)CC1CC2 (stereo not given) | inconclusive: 33.9% | 
43 | CCN1CNC(=S)N(c2cccc(C)c2C)C1 | inconclusive: 0.169% | 
44 | COc1ccc(C)cc1NC(=O)C(OC(=O)c1cnc(C)cn1)c1ccccc1 (stereo not given) |  | inconclusive: 9.2 µM [activator, partial curve, poor fit]
45 | Cc1sc(NC(=O)c2ccco2)c(CN2CCN(c3ccccn3)CC2)c1C | inconclusive: -6.27% | 
46 | CCN(CCCNC(=O)CCCN1C(=O)COc2ccc(C)cc21)c1cccc(C)c1 | inconclusive: -5.27% | 
47 | COc1ccc(C2N(Cc3ccccc3)CC(=O)N2/N=C(\C)c2ccccc2)cc1 (stereo not given) | inconclusive: 12.6% | 
48 | O=S(=O)(c1cccc2nsnc12)N1CCN(Cc2ccccc2)CC1 |  | active: 6.51 µM
49 | O=c1cc[nH]c2cccc(Cc3ccccc3)c12 | inconclusive: -12.9% | 
50 | COc1ccc(-c2cnnn2-c2ccc(NC(=O)c3ccc(S(=O)(=O)N4CCCCC4)cc3)cc2)cc1OC |  | inconclusive: 0.146 µM [activator, full curve, poor fit]
